Here are results for three molecules from PMC5741264.

Amino acid sequences for entries named in this document (tags omitted).
UniProt Q9SR02: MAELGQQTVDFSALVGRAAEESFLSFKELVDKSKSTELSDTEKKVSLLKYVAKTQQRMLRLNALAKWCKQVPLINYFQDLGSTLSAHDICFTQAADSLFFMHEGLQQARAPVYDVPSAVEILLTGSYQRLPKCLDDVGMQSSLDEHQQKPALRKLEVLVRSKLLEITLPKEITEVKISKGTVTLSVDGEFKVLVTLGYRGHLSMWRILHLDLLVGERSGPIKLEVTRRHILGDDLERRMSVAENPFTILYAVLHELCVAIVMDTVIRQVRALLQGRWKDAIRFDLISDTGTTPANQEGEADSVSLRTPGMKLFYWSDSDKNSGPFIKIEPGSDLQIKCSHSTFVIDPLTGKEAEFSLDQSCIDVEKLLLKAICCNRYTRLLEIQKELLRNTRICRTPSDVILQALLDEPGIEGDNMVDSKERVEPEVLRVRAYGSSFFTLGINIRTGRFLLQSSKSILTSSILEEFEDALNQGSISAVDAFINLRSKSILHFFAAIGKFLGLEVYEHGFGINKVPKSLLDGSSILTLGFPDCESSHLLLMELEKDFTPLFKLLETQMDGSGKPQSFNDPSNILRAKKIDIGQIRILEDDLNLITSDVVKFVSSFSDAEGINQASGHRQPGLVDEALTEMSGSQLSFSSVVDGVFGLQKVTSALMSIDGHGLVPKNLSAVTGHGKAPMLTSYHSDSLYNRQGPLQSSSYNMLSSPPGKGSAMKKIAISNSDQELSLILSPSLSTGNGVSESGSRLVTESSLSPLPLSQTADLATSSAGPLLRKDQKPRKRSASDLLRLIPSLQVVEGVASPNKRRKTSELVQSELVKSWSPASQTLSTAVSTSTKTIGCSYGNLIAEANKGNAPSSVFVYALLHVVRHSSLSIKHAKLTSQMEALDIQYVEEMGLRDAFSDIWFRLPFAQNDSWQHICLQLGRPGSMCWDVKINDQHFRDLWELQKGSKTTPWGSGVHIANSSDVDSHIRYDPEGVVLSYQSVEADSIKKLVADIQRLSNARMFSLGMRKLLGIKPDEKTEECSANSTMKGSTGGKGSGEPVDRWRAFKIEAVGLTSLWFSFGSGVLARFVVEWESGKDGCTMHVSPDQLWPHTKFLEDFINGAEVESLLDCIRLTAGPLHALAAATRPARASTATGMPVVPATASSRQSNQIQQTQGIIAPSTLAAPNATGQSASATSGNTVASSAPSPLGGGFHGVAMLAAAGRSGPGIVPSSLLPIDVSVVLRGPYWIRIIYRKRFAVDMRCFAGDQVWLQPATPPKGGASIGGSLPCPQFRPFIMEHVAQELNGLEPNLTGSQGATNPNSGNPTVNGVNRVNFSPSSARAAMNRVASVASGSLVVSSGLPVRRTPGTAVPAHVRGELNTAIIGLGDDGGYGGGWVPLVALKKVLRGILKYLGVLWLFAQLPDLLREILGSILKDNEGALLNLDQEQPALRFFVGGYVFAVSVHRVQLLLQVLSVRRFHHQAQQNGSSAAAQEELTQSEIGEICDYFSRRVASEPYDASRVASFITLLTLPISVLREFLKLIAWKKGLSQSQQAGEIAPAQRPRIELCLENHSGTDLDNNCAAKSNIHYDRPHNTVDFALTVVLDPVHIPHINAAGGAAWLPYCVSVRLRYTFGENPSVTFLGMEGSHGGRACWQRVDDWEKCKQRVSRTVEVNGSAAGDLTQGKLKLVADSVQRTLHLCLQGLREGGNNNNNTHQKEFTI

For the experiment, the target named is T1, NUP85-MYC (NUCLEOPORIN 85, expressed from NUP85pro:NUP85-MYC) (Arabidopsis thaliana) (UniProt Q8RXH2).
T1 sequence: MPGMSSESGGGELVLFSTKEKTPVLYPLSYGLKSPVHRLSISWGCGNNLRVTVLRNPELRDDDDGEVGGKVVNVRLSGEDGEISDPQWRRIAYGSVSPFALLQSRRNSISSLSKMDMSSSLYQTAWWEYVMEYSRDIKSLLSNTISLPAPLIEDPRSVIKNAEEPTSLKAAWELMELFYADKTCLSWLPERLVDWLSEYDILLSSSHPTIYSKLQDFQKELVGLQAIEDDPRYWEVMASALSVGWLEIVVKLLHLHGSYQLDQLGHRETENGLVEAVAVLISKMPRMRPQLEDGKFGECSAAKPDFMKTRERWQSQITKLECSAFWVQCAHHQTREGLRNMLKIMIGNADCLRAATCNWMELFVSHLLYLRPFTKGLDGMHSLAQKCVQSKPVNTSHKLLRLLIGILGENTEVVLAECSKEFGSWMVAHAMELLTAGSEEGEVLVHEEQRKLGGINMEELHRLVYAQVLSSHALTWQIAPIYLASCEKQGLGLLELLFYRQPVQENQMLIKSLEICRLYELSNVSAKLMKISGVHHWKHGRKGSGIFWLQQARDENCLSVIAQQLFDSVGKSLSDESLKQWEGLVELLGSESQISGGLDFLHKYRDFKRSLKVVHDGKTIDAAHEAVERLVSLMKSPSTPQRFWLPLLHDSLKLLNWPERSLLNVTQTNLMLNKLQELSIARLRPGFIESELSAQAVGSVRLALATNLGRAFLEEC
As to the kind of experiment: affinity purification with mass spectrometry; anti-MYC agarose beads on total protein extract of 12-day-old NUP85pro:NUP85-MYC transgenic seedlings, WT seedlings as negative control; 4 h at 4°C; two independent IP-MS experiments.

Results are given in words; binding and its absence hold for the method and conditions named. In cells and extracts the contact can be indirect. Here binding means that the protein was enriched with, or labelled near, the bait; the list need not be complete. Sequences can lack the tags named with a protein.

With Sec13, the binding result is on record as “binds”. For MED14 (from UniProt Q9SR02 1-1703), the binding result is reported as “binds”.

B1: NUP160 (protein, UniProt Q9C811 1-1495)
chain: MEENRRNPSAGMEVPVAGGGNVVKWIEISVPSPSVSSSSIGANSSEDNECVQLPLSEDYASSSVIGEPSISFVWRINKTSPNALELLQLSAKSGFPITGLRFVFAQTLSPFAFVYADEGGDSGRLVYFLYSLTPSGVVYVLKLSNTLAYKSGSVFPLDHLIHLDVRPYLNESRVTSVAASPGFIFLGRSDGCVSCFQPIVYFQKSSGFHQELRDDTGFGRLGTVVAAVQDLFISEVHGRNYLCVLHADGALRVWDILTYSRVLCQSIAAKNLEGVMCVRLWLGKADYDSGIIPLAVLYRKSMNDSMDVITVYGLHFSSAEGIALSLDSGLQNIPLEEGELRDVRFTSDKIWTLKANELTSYMLCQKSSTMEAQSYTLQEDYISEQLFLSSRSSSHDLLLTTHSLFSSAKDQIMGFISSIFLRRLLCPGIFHNVALRLTLLDHNKNWTDSEFQSLSLDELTSEILLLVEHEVTAETSISVFHWWKNFCTSYLHHWCSNNEPRTLLVQSDVIGLVRNNSVSLFFRLENAEHSLGGSSSEHSNLTSLDLGVSHSDHEILAEVLRCTSKISKQWGGAPYAMYYESITGRPIISSDEIVPRLVNILESGYSTTIGQRTWSDLGADRAWEKELEAHKNLRTFSIDMLLSLSALCQRAGSWEKVFTIMEHYLQYLVPKKSMQKNDGEALSDICSSILVQATSQFVKVMFESAFDIFLLISYLLNIAGQVNMSQQDICKLRLELLPMIQDIVSEWLIILFFVTTPAESTSMEDFSLKLSSLQIDSSIDKRSWNAMLGKCGFSLAFILLFSDRSCIVDGRFNLRYLPSSQIITSLVQNFISWIRYSKTGDDSSSLLRRSTELSLRLIRNGQSDAVERILVVVEASLRGEKTFGCSQDTSGDWCLLQHLRGCCLLDQVQRGASGILRERKIIDAIRCFFRASSGEGSWKALHSLSKEAGFSPATTGPSILDGSTSSAAWKLHYYEWAMQIFERYNISEGACQFAYAALEQVDDAYNFIEMTEEFDPTKAATYTRGRLWANVFKFTLDLNLLNDAYCAIISNPDEEIKRICLRRFIIVLFECGKTKILSDGHLPFIGLTEKITQELFWKAGRSDIMMKPNPYKLLYAYEMRRHNWRMAASYMYQFSARLRSEGACKDYKHMSLVLQERLNGLSAAMNALALVHPGYAWIDPVPEETTRYPVKKARRAEEEQLRSNDQPKGEKSCIDIEKLQNEFVFTTAEYMLSLKNFGWTYSGLEKPPSDLVDLLVQANLYDMAFTVVLKFWRGSALKRELEKIFENMAIKCCPAKGTLWSSPNLMLTSNDEEVTHSPDRSPADQGSKLAGDWEILEVYLKRYIDIHARLPVSVASTLLQADSCIELPLWLIQMFKDGQKEKALGMAGQEASPASLFQLYVDYGRLTEATNLLLEYMESFASSKPAEVLKRKKVSGVWFPYTTVERLWWELEKTMNSGRMVEQCHKLKEQLHHALLNHLKLLKVDSNDAVSSATG
As to B1, the binding entry is recorded as “binds”.
